From publication doi:10.1101/2020.08.14.217505

Target: His6-tagged Connectase from M. mazei (wild type) (M. mazei)
Assay: affinity purification with mass spectrometry

B1: methyltransferase A (MtrA) in whole cell extract (protein, UniProt P80184 1-238)
chain: MVEKKSPAEGWPVVNGDYIVGDPESPVAATTLASHIEDIPVEAGAAIAGPCKTENLGIEKMIANLISNPNIRFLILCGSEVQGHITGQSIEALHQNGVDPDKRNIIGATGAIPYIENIPDEGIERFQKQLEIVNLIDVEDADAIKAKVKECIEKDPGAFEEEAMIIKVEEGGEEEEGEEVKPVAPETALIEARMRNIQTQVKMIGSTNRMFAGMYSGKVQGIMIGLAFTLTLGILLLV
binding: binds

These are yes or no findings as the source states them, for the method shown. In cells and extracts the contact can be indirect. Here binding means that the protein was enriched with, or labelled near, the bait; the list need not be complete.
